PubChem BioAssay AID1159600 – NIAID – 2016
Test: 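Which TLR pathway genes support TNF promoter activation by R848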 (primary screen). Cells: human THP-1 TNF reporter clone B5, made macrophage-like with PMA. Reagent: single siRNA against human genes. Duration: 4 h ligand stimulation, assayed 48 to 72 h after siRNA transfection. Treatment: R848 (TLR7/8 agonist) for 4 hours before lysis; dose not given. Measured: 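Robust z-score of firefly over renilla TNF promoter signal after 4 h R848, plate median/MAD normalised, relative to negative controls, averaged across replicates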. Reading the numbers: TNF reporter z-score: higher = stronger TNF promoter reporter signal after R848. Hit rule: 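siRNAs graded by distance of mean z-score from zero in steps of 1, 1.5, 2 and 2.5; active calls sit at roughly -1.5 or below, or 1.5 or above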. Calls: active = strong change in TNF reporter (up or down); inactive = little change.
Shown is a random part of 756 deposited reagents. 134 of all reagents (18%) count as active. 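Active includes both reduced and increased reporter signal, though most active siRNAs reduce it; R848 dose unknown.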 Reagents against one gene are numbered here. Not stated in the record: the amount of reagent.

TNF reporter z-score, by gene symbol and reagent
MAP3K14: #1 0.184 inactive; #2 0.962 inactive; #3 -1.15 inactive; #4 0.836 inactive; #5 -0.633 inactive; #6 -1.42 inactive
JUN: #1 -0.754 inactive; #2 -1 inactive; #3 0.341 inactive; #4 -0.0728 inactive; #5 0.595 inactive; #6 -2.33 active
CXCL11: #1 -1.53 active; #2 -0.531 inactive; #3 0.254 inactive; #4 -0.374 inactive; #5 -2.21 active; #6 -0.353 inactive
DUSP2: #1 -1.09 inactive; #2 -0.305 inactive; #3 -1.51 active; #4 1.12 inactive; #5 -0.633 inactive; #6 -0.781 inactive
IRF5: #1 -2.93 active; #2 -1.09 inactive; #3 -0.816 inactive; #4 -0.26 inactive; #5 -1.17 inactive; #6 0.573 inactive

3 entries from above, reformatted:
MAP3K14 #4
- TNF reporter z-score: 0.836
- activity call: inactive

MAP3K14 #5
- TNF reporter z-score: -0.633
- activity call: inactive

MAP3K14 #6
- TNF reporter z-score: -1.42
- activity call: inactive

The list goes on.
TNF reporter z-score, by gene symbol and reagent
CD180: #1 -0.682 inactive; #2 -0.704 inactive; #3 -2.53 active; #4 -1.08 inactive; #5 -0.759 inactive; #6 -0.26 inactive
IL12B: #1 -0.456 inactive; #2 0.164 inactive; #3 -0.207 inactive; #4 -0.948 inactive; #5 -1.25 inactive; #6 -1.29 inactive
LBP: #1 -0.529 inactive; #2 -0.688 inactive; #3 0.23 inactive; #4 -0.562 inactive; #5 0.986 inactive; #6 -1.51 active
ATF2: #1 -2.01 active; #2 -0.305 inactive; #3 -0.0201 inactive; #4 0.879 inactive; #5 0.917 inactive; #6 -1.76 active
PELI1: #1 -0.779 inactive; #2 -0.734 inactive; #3 0.891 inactive; #4 -1.89 active; #5 -0.413 inactive; #6 -0.0882 inactive
SP1: #1 -2.22 active; #2 -1.15 inactive; #3 2.29 active; #4 2.26 active; #5 1.67 active; #6 -1.08 inactive
BTK: #1 -0.0727 inactive; #2 -0.682 inactive; #3 -0.365 inactive; #4 -0.455 inactive; #5 -0.592 inactive; #6 -0.66 inactive
TLR6: #1 -0.923 inactive; #2 0.473 inactive; #3 0.823 inactive; #4 0.405 inactive; #5 -0.127 inactive; #6 -0.51 inactive
